Measurements published in patent publication US20090226442A1.
No constants are given. Whether binding was seen depends on the method and setting. Some entries that bind do so weakly or less than the wild type.

Chains of the proteins cited; added tags and fusions are not shown. Lines headed by an entry give the natural chain unless they say otherwise; changes in a name come on top. Residues count along the entry.
UniProt Q04912: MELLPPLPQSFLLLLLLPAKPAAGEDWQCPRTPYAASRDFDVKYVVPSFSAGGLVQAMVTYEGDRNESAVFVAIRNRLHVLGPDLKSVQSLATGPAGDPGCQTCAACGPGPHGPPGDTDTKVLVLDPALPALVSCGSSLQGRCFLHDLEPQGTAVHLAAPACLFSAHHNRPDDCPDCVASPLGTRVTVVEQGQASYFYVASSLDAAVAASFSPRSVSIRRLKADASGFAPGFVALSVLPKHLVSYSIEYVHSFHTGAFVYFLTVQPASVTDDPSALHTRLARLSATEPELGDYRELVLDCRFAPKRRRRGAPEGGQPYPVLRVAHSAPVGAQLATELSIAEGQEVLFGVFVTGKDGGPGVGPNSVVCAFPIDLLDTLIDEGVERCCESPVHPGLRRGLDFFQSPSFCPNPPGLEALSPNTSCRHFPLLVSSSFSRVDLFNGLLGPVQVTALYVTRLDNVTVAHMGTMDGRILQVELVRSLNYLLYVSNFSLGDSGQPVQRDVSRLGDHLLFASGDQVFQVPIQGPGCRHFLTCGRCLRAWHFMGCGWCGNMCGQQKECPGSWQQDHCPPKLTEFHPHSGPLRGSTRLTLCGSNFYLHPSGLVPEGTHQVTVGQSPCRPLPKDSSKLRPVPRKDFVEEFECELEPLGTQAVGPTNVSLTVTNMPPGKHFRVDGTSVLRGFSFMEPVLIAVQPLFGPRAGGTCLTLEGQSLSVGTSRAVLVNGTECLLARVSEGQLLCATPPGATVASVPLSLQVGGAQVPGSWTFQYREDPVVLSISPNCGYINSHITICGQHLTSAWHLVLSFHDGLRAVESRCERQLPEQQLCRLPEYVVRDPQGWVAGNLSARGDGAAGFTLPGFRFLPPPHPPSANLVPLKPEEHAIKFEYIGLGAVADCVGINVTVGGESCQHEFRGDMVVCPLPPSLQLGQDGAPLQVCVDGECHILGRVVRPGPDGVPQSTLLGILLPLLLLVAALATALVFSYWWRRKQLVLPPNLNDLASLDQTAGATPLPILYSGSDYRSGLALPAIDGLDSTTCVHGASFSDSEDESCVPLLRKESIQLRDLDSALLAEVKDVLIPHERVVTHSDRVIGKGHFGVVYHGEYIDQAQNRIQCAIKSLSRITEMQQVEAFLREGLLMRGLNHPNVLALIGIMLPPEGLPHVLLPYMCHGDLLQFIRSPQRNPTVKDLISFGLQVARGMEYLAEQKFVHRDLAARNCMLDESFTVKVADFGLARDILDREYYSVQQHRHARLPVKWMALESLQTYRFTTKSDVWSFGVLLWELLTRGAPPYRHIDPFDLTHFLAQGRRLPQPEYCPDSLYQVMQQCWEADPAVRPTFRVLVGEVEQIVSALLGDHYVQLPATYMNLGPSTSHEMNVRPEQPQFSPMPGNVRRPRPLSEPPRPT
UniProt P26927, residues 19-711: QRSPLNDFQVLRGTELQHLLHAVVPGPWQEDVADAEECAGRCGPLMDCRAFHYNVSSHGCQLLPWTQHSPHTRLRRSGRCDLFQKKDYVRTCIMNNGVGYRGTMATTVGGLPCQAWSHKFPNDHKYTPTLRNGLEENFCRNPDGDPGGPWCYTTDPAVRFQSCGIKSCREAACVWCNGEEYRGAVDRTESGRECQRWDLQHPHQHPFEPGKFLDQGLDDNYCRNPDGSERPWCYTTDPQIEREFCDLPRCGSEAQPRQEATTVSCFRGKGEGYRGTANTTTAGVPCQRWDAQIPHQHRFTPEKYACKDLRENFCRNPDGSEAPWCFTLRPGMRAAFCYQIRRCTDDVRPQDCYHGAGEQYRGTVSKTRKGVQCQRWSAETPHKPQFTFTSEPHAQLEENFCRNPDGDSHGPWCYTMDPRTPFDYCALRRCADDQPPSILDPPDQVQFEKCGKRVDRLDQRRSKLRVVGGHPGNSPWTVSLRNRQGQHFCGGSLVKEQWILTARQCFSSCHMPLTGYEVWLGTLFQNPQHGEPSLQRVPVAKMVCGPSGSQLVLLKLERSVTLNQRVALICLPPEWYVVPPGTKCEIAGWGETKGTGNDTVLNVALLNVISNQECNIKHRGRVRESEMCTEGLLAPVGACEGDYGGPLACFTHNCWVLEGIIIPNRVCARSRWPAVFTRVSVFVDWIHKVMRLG

Columns and labels:
[1] = biological target: soluble cynomolgus (Macaca fascicularis) RON protein (cynomolgus (Macaca fascicularis)); assay: ELISA: serial dilutions of MSP on plate-coated soluble cyno RON
[2] = biological target: soluble human RON protein (R&D Systems, catalog 1947) (human) (UniProt Q04912); assay: ELISA: serial dilutions of MSP on plate-coated soluble human RON

## human macrophage stimulating protein (MSP) (R&D Systems cat. #4306-MS) (from UniProt P26927 19-711) (ligand)
[1]
  binding: binds
[2]
  binding: binds
